From US4931475A, “Cholagogue and/or gallstone solubilizer” (Hiya Pharmaceutical Co., Ltd., priority 1985, dated 1990)
For at least one compound, name, drawing or mass did not settle the structure.

System: secretion of bile
Assay: Activity on the secretion of bile, oral administration
Type: in vivo, rats
Conditions: 5 hours
Experimental: B. Oral Administration As in the case of intraduodenal administration, the drug to be tested was orally administered to rats each having a polyethylene tube attached to the common bile duct, and the amount of bile flowing out was observed over a period of 5 hours.

Structure (SMILES): CC1(C)C2CCC1(C)C(OC(=O)CCC(=O)O)C2 (stereo not shown) [bornyl succinate]
- cholagogic effect (amount of bile flowing out): also had a cholagogic effect
